Experimental data reported in the supplement of paper PMC6078165.
The reference is the same well before dosing, and untreated signal decays as well.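 Labels refer to human fibroblasts, largely primary: uterine (C12385, HUF), lung (H6013), bone (Hs27A), adrenal (HADF), skin (WS1), plus mammary HMF and breast cancer-associated Hs343T. Cancer lines are basal-like or mesenchymal-like triple-negative breast cancer. The paper counts as hits responses shifting over 3x the replicate standard deviation. The tissue of the other fibroblasts is not given here.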 Numbered stars: 1 amine (or outer) side, 2 acyl side, 3 side chain; on linkers, the order of the positions; unused ones are H or OH. Bridge positions count the residues as written; N and C are the ends. Square brackets hold non-standard residues; d marks the D form. Peptide text beside a SMILES is read from it. I, II: the chains in the order shown. Actinocin(9to1) = Cc1c2oc3c(C)ccc(C(=O)[*:1])c3nc-2c(C(=O)[*:2])c(N)c1=O; NMeV = CN[C@H](C(=O)O)C(C)C; Sar = CNCC(=O)O

Tested on: HCC1143
Assay: relative JC-1 red fluorescence (viability) vs pre-drug, coculture with fibroblast (fraction); higher = more viable cancer cells
Description: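 JC-1 labelled TNBC cells cocultured 1:1 (1,500 cells each) with CellTrace Violet stained primary or stromal fibroblasts in 384-well plates in FluoroBrite medium, treated with one of 42 anticancer drugs at 0.1, 1, 10 or 100 uM. JC-1 red fluorescence (mitochondrial integrity in cancer cells only) was read by plate reader every 8 h for 72 h. Values are normalised to each well's pre-drug value. The stock of one drug was tenfold lower, so its dose labels may be too high.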

Cc1c2oc3c(C)ccc(C(=O)N[C@@H]4C(=O)N[C@H](C(C)C)C(=O)N5CCC[C@H]5C(=O)N(C)CC(=O)N(C)[C@@H](C(C)C)C(=O)O[C@@H]4C)c3nc-2c(C(=O)N[C@@H]2C(=O)N[C@H](C(C)C)C(=O)N3CCC[C@H]3C(=O)N(C)CC(=O)N(C)[C@@H](C(C)C)C(=O)O[C@@H]2C)c(N)c1=O [Dactinomycin] (I: T[dV]P[Sar][NMeV] / II: T[dV]P[Sar][NMeV]; ester I:1-I:C, II:1-II:C; linker I:N-II:N via Actinocin(9to1))
relative JC-1 red fluorescence
Conditions	8 h	16 h	24 h	32 h	40 h	48 h	56 h	64 h	72 h
10 µM, coculture fibroblast: C12385	0.805	0.7134	0.632	0.5682	0.5018	0.4762	0.455	0.43202	0.4262
10 µM, coculture fibroblast: H6013	0.73	0.646	0.599	0.573	0.533	0.543	0.525	0.52	0.462
10 µM, coculture fibroblast: H6019	0.7603	0.636	0.548	0.472	0.422	0.404	0.374	0.36	0.353
10 µM, coculture fibroblast: H6076	0.789	0.75	0.679	0.641	0.562	0.53	0.497	0.465	0.483
10 µM, coculture fibroblast: H6231	0.802	0.833	0.819	0.781	0.755	0.731	0.696	0.674	0.68
10 µM, coculture fibroblast: HADF	0.7231	0.636	0.5863	0.557	0.4604	0.455	0.429	0.417	0.367
10 µM, coculture fibroblast: HCFa	0.747	0.643	0.592	0.563	0.504	0.503	0.484	0.473	0.427
10 µM, coculture fibroblast: HCPF	0.81	0.8221	0.762	0.665	0.655	0.608	0.565	0.536	0.537
10 µM, coculture fibroblast: HHSteC	0.8513	0.766	0.703	0.63	0.568	0.559	0.518	0.506	0.443
10 µM, coculture fibroblast: HMF	0.789	0.782	0.682	0.609	0.577	0.538	0.503	0.466	0.459
10 µM, coculture fibroblast: HPFa	0.852	0.78	0.742	0.649	0.596	0.585	0.549	0.54	0.532
10 µM, coculture fibroblast: HUF	0.854	0.755	0.672	0.561	0.485	0.461	0.416	0.392	0.377
10 µM, coculture fibroblast: Hs5	0.849	0.83	0.749	0.722	0.631	0.586	0.567	0.55	0.564
10 µM, coculture fibroblast: Hs27A	0.6875	0.603	0.548	0.541	0.47	0.502	0.482	0.478	0.397
10 µM, coculture fibroblast: Hs343T	0.821	0.804	0.723	0.642	0.585	0.532	0.498	0.48	0.466
10 µM, coculture fibroblast: WS1	0.774	0.658	0.597	0.515	0.459	0.441	0.416	0.399	0.393
100 µM, coculture fibroblast: C12385	0.7606	0.651	0.573	0.509	0.451	0.429	0.399	0.371	0.355
100 µM, coculture fibroblast: H6013	0.683	0.593	0.539	0.503	0.463	0.464	0.435	0.418	0.351
100 µM, coculture fibroblast: H6019	0.7744	0.681	0.619	0.537	0.487	0.479	0.45	0.425	0.417
100 µM, coculture fibroblast: H6076	0.746	0.683	0.616	0.58	0.521	0.505	0.477	0.4597	0.4611
100 µM, coculture fibroblast: H6231	0.78	0.809	0.752	0.655	0.649	0.618	0.569	0.539	0.525
100 µM, coculture fibroblast: HADF	0.701	0.633	0.577	0.553	0.466	0.453	0.43	0.4162	0.377
100 µM, coculture fibroblast: HCFa	0.739	0.647	0.583	0.543	0.483	0.472	0.443	0.424	0.377
100 µM, coculture fibroblast: HCPF	0.783	0.7787	0.731	0.642	0.614	0.565	0.527	0.501	0.498
100 µM, coculture fibroblast: HHSteC	0.774	0.675	0.615	0.564	0.499	0.495	0.461	0.45	0.383
100 µM, coculture fibroblast: HMF	0.758	0.785	0.707	0.616	0.588	0.557	0.51	0.479	0.466
100 µM, coculture fibroblast: HPFa	0.85	0.75	0.702	0.611	0.562	0.564	0.534	0.532	0.521
100 µM, coculture fibroblast: HUF	0.825	0.737	0.66	0.557	0.491	0.46	0.412	0.392	0.375
100 µM, coculture fibroblast: Hs5	0.8386	0.8208	0.749	0.716	0.632	0.6	0.5775	0.561	0.562
100 µM, coculture fibroblast: Hs27A	0.6744	0.5649	0.514	0.508	0.415	0.435	0.4085	0.393	0.339
100 µM, coculture fibroblast: Hs343T	0.762	0.781	0.682	0.576	0.501	0.457	0.411	0.389	0.376
100 µM, coculture fibroblast: WS1	0.7788	0.672	0.595	0.519	0.461	0.452	0.423	0.409	0.4
